Assay results as given in PubChem BioAssay AID504467 (National Center for Advancing Translational Sciences (NCATS), 2011).
Hit rate of the full screen: of about 330,000 compounds, about 7,700 (2.3%) were called active. The inconclusive results got no clear call from the source; some entries with a clear call stand among them for comparison. Calls come from the whole dose curve; as a rule, active = well fitted inhibition curve with a large enough effect; inconclusive = small, poorly fitted or top-dose-only effect, or effect the other way; inactive = flat fitted curve, though single readings scatter. A potency beside an inconclusive call is a rough fit, not a confirmed value.
% is set by controls: 0 for no effect and ±100 for the full control effect; potency is the fitted concentration of half-maximal effect.

Assay: qHTS screen for small molecules that inhibit ELG1-dependent DNA repair in human embryonic kidney (HEK293T) cells expressing luciferase-tagged ELG1; note: nearly all actives have a fitted effect of over 55% in size
Settings: HEK293T ELG1-luciferase reporter, luminescence, 16 h, DNA damage induced by 5-fluorouridine; activity change, negative = inhibition: at 46.1 µM (top of the series)
Outline: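 Luminescence from the luciferase reporter, measured 30 min after ONE-Glo reagent at room temperature, was the read-out. Beforehand, 2,000 cells per well were exposed for 16 hr at 37 °C to 5-fluorouridine together with compound or vehicle.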
For `COc1ccccc1NC(=O)COc1ccccc1C(=O)c1cnn(-c2ccccc2)c1`, the “activity change, negative = inhibition” value was inactive: -0.396%.
In the case of `Cc1ccc(C(C)C)c(OCc2nc(-c3nonc3N)no2)c1`, the Potency is reported as inconclusive: 16.4 µM [activator, partial curve].
With `COc1ccc(N=C2S/C(=C\c3ccc(C)o3)C(=O)N2CC(C)C)cc1` the Potency was inconclusive: 18.4 µM [inhibitor, single point].
With `COc1ccc(C(=O)Cc2cc(OC)c(OC)cc2[N+](=O)[O-])cc1` the Potency was inconclusive: 14.6 µM [activator, partial curve].
In the case of `COc1ccc(C(=O)CC(SCC(NC(C)=O)C(=O)O)c2ccc(Cl)cc2)cc1OC` (stereo not given), the Potency is reported as inconclusive: 25.9 µM [activator, single point].
With `CCC1(c2ccc(Cl)cc2)NC(=O)N(CC(=O)N2CCN(C(=O)c3ccco3)CC2)C1=O` (stereo not given) the Potency was inconclusive: 0.58 µM [inhibitor, partial curve, poor fit].
For `COc1ccc(CNc2ncnc3c2[nH]c2cc(OC)c(OC)cc23)cc1`, the Potency was inconclusive: 8.2 µM [inhibitor, partial curve].
For `NC(=O)c1c(C(F)(F)F)cc(-c2ccccc2)nc1NCCO`, the Potency was inconclusive: 20.6 µM [inhibitor, single point].
For `CC(C)(C)NC(=O)C(c1ccsc1)N(CCc1ccccc1)C(=O)Cn1nnc2ccccc21` (stereo not given), the Potency was inconclusive: 29.1 µM [activator, single point].
For `O=C(NCc1ccncc1)C1CCN(S(=O)(=O)c2ccc(Cl)c(C(F)(F)F)c2)CC1`, the Potency was inconclusive: 29.1 µM [inhibitor, single point].
In the case of `CC(=O)Nc1cc(C(=O)OCC(=O)c2ccc(Cl)cc2Cl)ccc1C`, the “activity change, negative = inhibition” value is reported as inactive: 5.5%.
For `Cc1cc(C(=O)Nc2cccc(S(=O)(=O)N3CCCC3)c2)c2ccccc2n1`, the Potency was inconclusive: 29.1 µM [inhibitor, single point].
For `Cc1cc(C(=O)NC2CCC(O)CC2)c(C)o1` (stereo not given), the Potency was inconclusive: 4.11 µM [activator, single point].
For `Cc1ccc(NCc2nnc(SCC(=O)O)n2Cc2ccccc2)cc1Cl`, the “activity change, negative = inhibition” value was inactive: 13.8%.
With `CCc1ccc(OCC(=O)NNC(=S)NC(=O)C2CCCCC2)c(Br)c1` the Potency was inconclusive: 32.6 µM [activator, partial curve, poor fit].
In the case of `O=C(CCS(=O)(=O)c1ccccc1)Nc1nc(-c2ccc(F)cc2)cs1`, the “activity change, negative = inhibition” value is reported as inactive: 7.5%.
With `COCCNC(=O)c1cccc(OC2CCN(Cc3ccccc3C)CC2)c1` the “activity change, negative = inhibition” value was inactive: -7.82%.
For `CC(C)NC(=O)COC(=O)CNC(=O)c1cc(Cl)cc([N+](=O)[O-])c1`, the Potency was inconclusive: 20.6 µM [activator, partial curve, poor fit].
In the case of `O=C1CN(C(=O)CSc2nc3ccccc3c(=O)n2Cc2ccc(F)cc2)c2ccccc2N1`, the Potency is reported as inconclusive: 25.9 µM [inhibitor, single point].
With `CC(C)CC(=O)c1c(O)c(C=O)c(O)c2c1O[C@@]1(C)[C@@H](C2)C[C@H]2C[C@@H]1C2(C)C` the Potency was inconclusive: 18.3 µM [activator, single point].
For `O=C(Nc1cnn(Cc2ccc(F)cc2)c1)c1cc(-c2cccs2)on1`, the Potency was inconclusive: 23.1 µM [activator, single point].
For `O=C(NCCc1ccc(Cl)cc1)c1ccc2c(c1)OCO2`, the Potency was inconclusive: 6.51 µM [activator, partial curve].
For `C/C(=N/NC(=O)c1cc(C(C)C)[nH]n1)c1cccs1`, the Potency was inconclusive: 1.84 µM [activator, partial curve].
With `COc1ccc(CNc2nc(Cl)c(C#N)s2)cc1` the Potency was inconclusive: 29.1 µM [activator, single point].
For `COC(=O)c1cccc(NC(=O)Nc2ccc(Cl)c(Cl)c2)c1`, the Potency was inconclusive: 4.61 µM [activator, single point].
In the case of `CN(CC(=O)Nc1nc2ccccc2s1)S(=O)(=O)c1ccc(Cl)cc1`, the Potency is reported as inconclusive: 32.6 µM [inhibitor, partial curve, poor fit].
For `O=C(Cc1ccc(F)cc1)Nc1cccc2cccnc12`, the “activity change, negative = inhibition” value was inactive: 29.9%.
With `CC(C)(C)C(=O)N1CCC(O)(CS(=O)(=O)Cc2ccccc2Cl)CC1` the “activity change, negative = inhibition” value was inactive: 0%.
In the case of `COc1cccc(C2C3=C(CC(C)(C)CC3=O)Nc3n[nH]c(C)c32)c1` (stereo not given), the Potency is reported as inconclusive: 29.1 µM [activator, single point].
For `CCCCCCNC(=O)N[C@H](C(=O)NCCC[C@H]1CN2C(=NC[C@H]2C)N1CCC(c1ccccc1)c1ccccc1)C(C)O` (stereo not given in full), the Potency was inconclusive: 18.3 µM [activator, partial curve, poor fit].
In the case of `O=C(COC(=O)c1cc2c(s1)CCCC2)Nc1ccc(Cl)cn1`, the Potency is reported as inconclusive: 20.6 µM [activator, partial curve, poor fit].
With `O=C(NCCc1csc(-c2cccnc2)n1)c1ccc(Br)o1` the Potency was active: 11.6 µM.
For `CCCCCc1c(O)nc(SCCN2CCOCC2)[nH]c1=O`, the Potency was inconclusive: 20.6 µM [activator, partial curve, poor fit].
In the case of `C=CCn1c(=NC(=O)c2cccs2)sc2cccc(OC)c21`, the “activity change, negative = inhibition” value is reported as inactive: -7.56%.
With `COc1ccc(-c2ccc(-c3noc(C(C)C)n3)c(OC)n2)cc1` the Potency was inconclusive: 4.61 µM [activator, single point].
For `CCOC(=O)C1CCN(S(=O)(=O)c2cccc(-c3cn4ccccc4n3)c2)CC1`, the Potency was inconclusive: 36.6 µM [inhibitor, single point].
For `Nc1nc(N2CCN(C(=O)c3ccco3)CC2)nc2ccc(Br)cc12`, the Potency was inconclusive: 2.59 µM [activator, partial curve].
With `CCOC(=O)Cn1nc(C)c(NC(=O)COc2ccc([N+](=O)[O-])c(C)c2)c1C` the Potency was inconclusive: 14.6 µM [inhibitor, partial curve, poor fit].
For `COc1ccc(CNC(=O)CCc2ccc(S(=O)(=O)N3CCCCCC3)cc2)cc1OC`, the “activity change, negative = inhibition” value was inactive: -19.8%.
In the case of `COc1ccc(N(Cc2ccccc2)N=O)cc1`, the Potency is reported as inconclusive: 18.3 µM [activator, partial curve, poor fit].
With `COC(=O)c1cccc(NC(=O)c2cc3ccccc3o2)c1` the Potency was inconclusive: 2.91 µM [activator, partial curve].
In the case of `Cc1cc(C)n(-c2cc(N3CCN(C(=O)c4cccc(Br)c4)CC3)ccc2[N+](=O)[O-])n1`, the Potency is reported as inconclusive: 29.1 µM [inhibitor, single point].
In the case of `O=C(O)CCc1ccc(-c2ccc(Cl)cc2)o1`, the Potency is reported as inconclusive: 23.1 µM [activator, single point].
In the case of `Cc1ccc(NS(=O)(=O)c2ccc(C(=O)NNC(=O)c3ccccc3O)cc2)cc1`, the Potency is reported as inconclusive: 25.9 µM [inhibitor, single point].
In the case of `CCn1c(SCC(=O)c2ccc(Cl)s2)nnc1-c1cccs1`, the Potency is reported as inconclusive: 14.6 µM [activator, single point].
For `CC(=O)NC(=S)Nc1sc2c(c1C#N)CCCCC2`, the Potency was inconclusive: 1.46 µM [activator, full curve].
In the case of `COc1ccc2c(c1)c(=O)cc(-c1ccccc1)n2C`, the Potency is reported as inconclusive: 23.1 µM [activator, single point].
In the case of `CCc1nc(SCC(=O)N2CCN(C(=O)c3ccco3)CC2)c2c3c(sc2n1)CCCC3`, the Potency is reported as inconclusive: 14.6 µM [inhibitor, partial curve, poor fit].
With `COc1ccc(N(C)C(=O)c2cc3c(s2)-c2c(C)cccc2OC3)c(OC)c1` the Potency was active: 23.1 µM.
For `COCc1c(C(=O)N2CCc3ccccc32)oc2ccccc12`, the “activity change, negative = inhibition” value was inactive: 1.8%.
With `CCOC(=O)c1ccc(/C=C2\c3ccccc3C(=O)N2c2ccccc2)cc1F` the Potency was inconclusive: 20.6 µM [activator, partial curve, poor fit].
For `Clc1ccccc1-c1nc2nc3ccccc3nc2n1-c1ccc2c(c1)OCO2`, the Potency was active: 14.6 µM.
For `CCCNC(=O)/C=C/c1ccc(C(C)C)cc1`, the Potency was inconclusive: 20.6 µM [activator, partial curve].
For `O=C(COC(=O)Cc1ccc(Br)cc1)Nc1ccc(N2CCOCC2)cc1`, the Potency was inconclusive: 0.231 µM [activator, single point].
For `Cc1ccc(Cc2cnc(NC(=O)c3ccco3)s2)cc1`, the Potency was inconclusive: 2.31 µM [activator, partial curve].
With `Cn1cccc1C(=O)C(=O)Nc1ccc(F)c(F)c1` the Potency was inconclusive: 7.3 µM [activator, partial curve].
In the case of `CCCCn1c(N)c(N(CC(C)C)C(=O)c2ccncc2)c(=O)[nH]c1=O`, the Potency is reported as inconclusive: 23.1 µM [activator, single point].
With `O=C(Cn1cccc1C(=O)c1ccccc1)NCc1ccccc1Cl` the Potency was inconclusive: 23.1 µM [activator, single point].
In the case of `COc1ccc(OC)c(-n2c(N)c(C(=O)NCC3CCCO3)c3nc4ccccc4nc32)c1` (stereo not given), the Potency is reported as active: 16.4 µM.
With `CCn1nc(C)c(CNC(=O)Nc2ccccc2C(=O)OC)c1C` the Potency was inconclusive: 29.1 µM [inhibitor, single point].
With `N#CC1(NC(=O)COC(=O)c2ccccc2SCC(=O)N2CCCC2)CCCCC1` the Potency was inconclusive: 11.6 µM [inhibitor, partial curve, poor fit].
For `CC(C)(C)C(=O)/C(C#N)=C/c1ccc(O)cc1`, the Potency was inconclusive: 1.83 µM [inhibitor, partial curve, poor fit].
For `FC(F)(F)COc1nc(OCC(F)(F)F)nc(N2CCN(c3ccccc3)CC2)n1`, the Potency was active: 23.1 µM.
For `COc1ccc(OC)c(NC(=O)c2[nH]c(C)c(C(C)=O)c2C)c1`, the Potency was inconclusive: 15.8 µM [activator, single point].
For `CCN(C(=O)CSc1nnc2c3ccccc3n(CC)c2n1)C1CCS(=O)(=O)C1` (stereo not given), the Potency was inconclusive: 20.6 µM [activator, partial curve, poor fit].
